Experimental data from US20110045568A1, “METHOD FOR RESTORING BMP-RECEPTOR SIGNALING IN A CELL” (FREIE UNIVERSITÄT BERLIN, priority 2008, published 2011).

Molecular target: FLAG-Smad5 (transfected, 293T cells)
Test: IP of cGKIβ from transfected 293T cells with or without BMP-2, immunoblot α-Smad1/5

B1: cGKIβ (cGMP-dependent protein kinase I, β isoform), overexpressed in C2C12 or 293T cells (enzyme)
chain: MGTLRDLQYALQEKIEELRQRDALIDELELELDQKDELIQKLQNELDKYRSVIRPATQQAQKQSASTLQGEPRTKRQAISAEPTAFDIQDLSHVTLPFYPKSPQSKDLIKEAILDNDFMKNLELSQIQEIVDCMYPVEYGKDSCIIKEGDVGSLVYVMEDGKVEVTKEGVKLCTMGPGKVFGELAILYNCTRTATVKTLVNVKLWAIDRQCFQTIMMRTGLIKHTEYMEFLKSVPTFQSLPEEILSKLADVLEETHYENGEYIIRQGARGDTFFIISKGTVNVTREDSPSEDPVFLRTLGKGDWFGEKALQGEDVRTANVIAAEAVTCLVIDRDSFKHLIGGLDDVSNKAYEDAEAKAKYEAEAAFFANLKLSDFNIIDTLGVGGFGRVELVQLKSEESKTFAMKILKKRHIVDTRQQEHIRSEKQIMQGAHSDFIVRLYRTFKDSKYLYMLMEACLGGELWTILRDRGSFEDSTTRFYTACVVEAFAYLHSKGIIYRDLKPENLILDHRGYAKLVDFGFAKKIGFGKKTWTFCGTPEYVAPEIILNKGHDISADYWSLGILMYELLTGSPPFSGPDPMKTYNIILRGIDMIEFPKKIAKNAANLIKKLCRDNPSERLGNLKNGVKDIQKHKWFEGFNWEGLRKGTLTPPIIPSVASPTDTSNFDSFPEDNDEPPPDDNSGWDIDF
- binding: binds

These are yes or no findings as the source states them, for the method shown. Binding calls can cover weak binding; strength is not graded here.
